No constants are given. Whether binding was seen depends on the method and setting. Binding seen in cells or lysates may run through a third protein. Some entries that bind do so weakly or less than the wild type.
Target: IL-1 receptor-associated kinase 1 (IRAK-1), endogenous in mouse macrophages (mouse (endogenous in bone marrow-derived MØ lines)) (UniProt Q62406)
Assay: co-IP; endogenous proteins of mouse MØ lysates; IP with 4 µg IRAK-1 or SHP-1 antibody on protein A/G agarose beads, three washes with lysis buffer, western blot; cells naive, L. donovani-infected and/or stimulated with LPS (100 ng/ml)

Sequences of proteins named here, by UniProt entry; tags and fusion partners are left off.
UniProt Q62406: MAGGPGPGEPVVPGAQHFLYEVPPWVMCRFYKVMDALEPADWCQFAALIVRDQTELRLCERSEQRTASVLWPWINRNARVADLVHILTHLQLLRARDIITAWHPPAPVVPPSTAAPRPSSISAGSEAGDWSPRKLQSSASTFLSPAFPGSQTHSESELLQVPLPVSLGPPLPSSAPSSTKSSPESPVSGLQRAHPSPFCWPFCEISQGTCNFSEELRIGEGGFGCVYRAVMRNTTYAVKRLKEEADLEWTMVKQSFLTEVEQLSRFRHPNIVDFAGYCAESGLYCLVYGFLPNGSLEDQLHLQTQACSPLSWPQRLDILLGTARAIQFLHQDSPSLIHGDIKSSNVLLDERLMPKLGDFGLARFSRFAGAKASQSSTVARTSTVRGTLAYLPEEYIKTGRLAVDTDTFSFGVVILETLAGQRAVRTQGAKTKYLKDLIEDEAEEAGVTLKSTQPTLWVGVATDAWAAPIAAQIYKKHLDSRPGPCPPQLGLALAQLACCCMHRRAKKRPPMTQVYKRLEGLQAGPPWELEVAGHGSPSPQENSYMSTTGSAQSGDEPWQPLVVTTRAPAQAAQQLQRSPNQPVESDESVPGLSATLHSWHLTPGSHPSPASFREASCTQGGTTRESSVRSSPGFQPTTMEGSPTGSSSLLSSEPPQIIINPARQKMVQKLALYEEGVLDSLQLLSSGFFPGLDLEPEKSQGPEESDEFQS

B1: TRAF6, endogenous in mouse macrophages (protein, UniProt P70196 1-530)
chain: MSLLNCENSCGSSQSSSDCCAAMAASCSAAVKDDSVSGSASTGNLSSSFMEEIQGYDVEFDPPLESKYECPICLMALREAVQTPCGHRFCKACIIKSIRDAGHKCPVDNEILLENQLFPDNFAKREILSLTVKCPNKGCLQKMELRHLEDHQVHCEFALVNCPQCQRPFQKCQVNTHIIEDCPRRQVSCVNCAVSMAYEEKEIHDQSCPLANIICEYCGTILIREQMPNHYDLDCPTAPIPCTFSVFGCHEKMQRNHLARHLQENTQLHMRLLAQAVHNVNLALRPCDAASPSRGCRPEDPNYEETIKQLESRLVRQDHQIRELTAKMETQSMYVGELKRTIRTLEDKVAEMEAQQCNGIYIWKIGNFGMHLKSQEEERPVVIHSPGFYTGRPGYKLCMRLHLQLPTAQRCANYISLFVHTMQGEYDSHLPWPFQGTIRLTILDQSEALIRQNHEEVMDAKPELLAFQRPTIPRNPKGFGYVTFMHLEALRQGTFIKDDTLLVRCEVSTRFDMGGLRKEGFQPRSTDAGV
- binding: binds

Reference: publication PMC2596967
